Experimental data from PMC8845511.
No constants are given. Whether binding was seen depends on the method and setting. Some entries that bind do so weakly or less than the wild type.

Sequences of proteins named here, by UniProt entry; tags and fusion partners are left off.
UniProt Q6P9J9: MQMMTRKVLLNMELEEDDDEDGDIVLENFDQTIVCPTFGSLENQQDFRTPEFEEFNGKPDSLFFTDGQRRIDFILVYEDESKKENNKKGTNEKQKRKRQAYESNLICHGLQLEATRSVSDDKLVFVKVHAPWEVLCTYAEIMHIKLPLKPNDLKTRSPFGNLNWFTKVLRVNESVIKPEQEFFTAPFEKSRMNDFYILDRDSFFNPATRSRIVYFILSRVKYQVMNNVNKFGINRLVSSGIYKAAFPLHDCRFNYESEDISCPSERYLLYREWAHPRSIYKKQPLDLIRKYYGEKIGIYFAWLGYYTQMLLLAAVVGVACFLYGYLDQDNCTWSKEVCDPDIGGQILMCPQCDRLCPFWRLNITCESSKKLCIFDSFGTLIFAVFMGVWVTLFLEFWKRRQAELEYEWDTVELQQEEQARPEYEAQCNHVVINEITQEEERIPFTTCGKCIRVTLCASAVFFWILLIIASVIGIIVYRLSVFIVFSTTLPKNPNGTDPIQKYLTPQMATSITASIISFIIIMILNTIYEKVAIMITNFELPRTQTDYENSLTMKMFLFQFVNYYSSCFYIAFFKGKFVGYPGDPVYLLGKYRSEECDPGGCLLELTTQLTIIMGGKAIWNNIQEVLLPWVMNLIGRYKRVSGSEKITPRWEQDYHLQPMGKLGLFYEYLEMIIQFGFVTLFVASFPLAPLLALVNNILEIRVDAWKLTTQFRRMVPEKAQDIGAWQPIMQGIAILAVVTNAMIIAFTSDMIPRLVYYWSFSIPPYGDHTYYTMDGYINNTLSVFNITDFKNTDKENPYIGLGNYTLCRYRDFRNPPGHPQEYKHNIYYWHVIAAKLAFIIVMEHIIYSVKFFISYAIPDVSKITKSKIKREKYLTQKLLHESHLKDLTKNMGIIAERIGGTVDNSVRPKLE

Molecular target: TMEM16F (UniProt Q6P9J9)
Experiment: cryo-EM structure; TMEM16F in lipid nanodiscs with Ca2+ and PIP2, with or without niclosamide or 1PBC; single particle cryo-EM of tilted specimen; no symmetry imposed (C1); both purified

In the case of TMEM16F (from UniProt Q6P9J9 1-911), the binding is reported as “binds”.
